No constants are given. Whether binding was seen depends on the method and setting. For part of these data: Binding seen in cells or lysates may run through a third protein. Some binding calls cover weakened binding; strength is not graded here.
What was measured:
HA-tagged G9a = HA-tagged G9a (UniProt Q9Z148); assay: co-IP
[1] = biological target: nucleophosmin (NPM1), endogenous in mouse ESCs (mouse (endogenous in E14 ESCs)) (UniProt Q61937); assay: native gel or EMSA

Amino acid sequences for entries named in this document (tags omitted).
UniProt Q9Z148: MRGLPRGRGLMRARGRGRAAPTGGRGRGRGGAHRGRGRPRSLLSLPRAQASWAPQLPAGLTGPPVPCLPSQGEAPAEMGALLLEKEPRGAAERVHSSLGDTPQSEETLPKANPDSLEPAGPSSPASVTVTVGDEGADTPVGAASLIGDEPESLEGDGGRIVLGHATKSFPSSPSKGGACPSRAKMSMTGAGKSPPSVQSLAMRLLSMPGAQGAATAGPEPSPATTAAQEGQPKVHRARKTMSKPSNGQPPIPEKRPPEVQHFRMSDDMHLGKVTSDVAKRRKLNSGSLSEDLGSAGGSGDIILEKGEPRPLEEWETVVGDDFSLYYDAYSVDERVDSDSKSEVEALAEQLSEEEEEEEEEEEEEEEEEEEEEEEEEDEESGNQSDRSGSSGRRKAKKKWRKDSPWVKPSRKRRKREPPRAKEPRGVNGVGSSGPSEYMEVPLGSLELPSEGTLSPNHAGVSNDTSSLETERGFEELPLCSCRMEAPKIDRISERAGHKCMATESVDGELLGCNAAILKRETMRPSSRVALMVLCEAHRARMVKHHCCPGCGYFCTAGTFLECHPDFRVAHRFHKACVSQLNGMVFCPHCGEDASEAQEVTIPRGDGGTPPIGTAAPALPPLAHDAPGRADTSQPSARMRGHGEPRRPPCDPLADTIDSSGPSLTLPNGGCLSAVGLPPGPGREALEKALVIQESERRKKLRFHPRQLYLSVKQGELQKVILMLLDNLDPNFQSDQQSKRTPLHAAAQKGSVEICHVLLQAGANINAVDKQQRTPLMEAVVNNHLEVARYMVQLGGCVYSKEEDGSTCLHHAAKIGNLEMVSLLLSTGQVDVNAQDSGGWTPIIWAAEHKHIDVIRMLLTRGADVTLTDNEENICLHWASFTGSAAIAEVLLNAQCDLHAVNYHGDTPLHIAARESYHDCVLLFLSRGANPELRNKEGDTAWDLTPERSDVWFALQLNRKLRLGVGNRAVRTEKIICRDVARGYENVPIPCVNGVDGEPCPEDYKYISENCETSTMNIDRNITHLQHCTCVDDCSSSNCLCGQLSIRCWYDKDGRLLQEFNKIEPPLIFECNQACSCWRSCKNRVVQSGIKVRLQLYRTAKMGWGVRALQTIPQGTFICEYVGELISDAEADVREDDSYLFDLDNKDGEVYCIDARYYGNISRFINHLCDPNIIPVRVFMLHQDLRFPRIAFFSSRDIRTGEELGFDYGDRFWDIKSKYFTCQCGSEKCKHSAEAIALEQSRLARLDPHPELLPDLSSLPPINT
UniProt Q61937: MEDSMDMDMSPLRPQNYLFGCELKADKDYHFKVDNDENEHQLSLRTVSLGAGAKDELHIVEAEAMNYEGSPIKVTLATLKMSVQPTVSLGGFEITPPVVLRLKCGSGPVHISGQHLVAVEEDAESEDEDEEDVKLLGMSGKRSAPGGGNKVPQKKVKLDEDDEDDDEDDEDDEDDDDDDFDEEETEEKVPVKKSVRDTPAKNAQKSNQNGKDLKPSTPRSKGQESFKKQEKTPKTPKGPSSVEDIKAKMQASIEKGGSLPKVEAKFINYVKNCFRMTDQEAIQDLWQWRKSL
UniProt P06748: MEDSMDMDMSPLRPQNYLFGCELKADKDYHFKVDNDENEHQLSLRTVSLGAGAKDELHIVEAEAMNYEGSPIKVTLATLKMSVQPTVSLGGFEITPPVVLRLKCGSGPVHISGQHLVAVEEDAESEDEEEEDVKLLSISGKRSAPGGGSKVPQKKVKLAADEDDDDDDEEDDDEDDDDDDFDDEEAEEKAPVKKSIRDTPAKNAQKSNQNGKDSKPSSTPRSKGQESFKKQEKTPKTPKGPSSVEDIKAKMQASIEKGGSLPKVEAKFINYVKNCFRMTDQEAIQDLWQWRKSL

binding (HA-tagged G9a) | binding [1] | Substance
binds |  | NPM1, endogenous in HEK293T cells (from UniProt P06748 1-294)
binds |  | mCherry-NPM1 wild type (from UniProt Q61937 1-292)
 | binds | nucleophosmin (NPM1), endogenous in mouse ESCs (from UniProt Q61937 1-292)

Source: doi:10.1101/2024.07.03.601885
